Assay results taken from doi:10.1101/2023.03.27.534359.
Results are given in words; binding and its absence hold for the method and conditions named. Binding seen in cells or lysates may run through a third protein. Some entries that bind do so weakly or less than the wild type. Sequences can lack the tags named with a protein.

Amino acid sequences for entries named in this document (tags omitted). A change or cut given only in a name is not applied to a line headed by its entry.
UniProt P16378: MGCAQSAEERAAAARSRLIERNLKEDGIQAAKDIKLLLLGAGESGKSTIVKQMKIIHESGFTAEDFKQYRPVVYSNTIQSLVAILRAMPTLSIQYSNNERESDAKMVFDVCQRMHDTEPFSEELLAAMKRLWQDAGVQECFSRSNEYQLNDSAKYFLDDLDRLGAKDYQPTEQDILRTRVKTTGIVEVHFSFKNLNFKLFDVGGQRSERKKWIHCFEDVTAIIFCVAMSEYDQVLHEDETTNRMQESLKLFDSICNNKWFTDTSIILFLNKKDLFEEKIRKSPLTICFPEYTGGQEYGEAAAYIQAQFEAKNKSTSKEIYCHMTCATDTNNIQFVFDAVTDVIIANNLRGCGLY
UniProt P09471: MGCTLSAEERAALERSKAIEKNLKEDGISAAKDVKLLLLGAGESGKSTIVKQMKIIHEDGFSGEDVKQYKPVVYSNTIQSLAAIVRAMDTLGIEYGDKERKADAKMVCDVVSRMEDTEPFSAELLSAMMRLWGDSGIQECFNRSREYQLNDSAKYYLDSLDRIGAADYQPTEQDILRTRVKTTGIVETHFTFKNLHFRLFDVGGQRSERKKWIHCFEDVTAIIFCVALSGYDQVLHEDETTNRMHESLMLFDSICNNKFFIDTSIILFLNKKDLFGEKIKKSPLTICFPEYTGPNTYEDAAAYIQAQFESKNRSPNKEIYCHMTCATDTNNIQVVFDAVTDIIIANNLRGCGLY

Target: T1, Drosophila GFP-Ric8 (Drosophila) (UniProt Q9W358)
T1 sequence: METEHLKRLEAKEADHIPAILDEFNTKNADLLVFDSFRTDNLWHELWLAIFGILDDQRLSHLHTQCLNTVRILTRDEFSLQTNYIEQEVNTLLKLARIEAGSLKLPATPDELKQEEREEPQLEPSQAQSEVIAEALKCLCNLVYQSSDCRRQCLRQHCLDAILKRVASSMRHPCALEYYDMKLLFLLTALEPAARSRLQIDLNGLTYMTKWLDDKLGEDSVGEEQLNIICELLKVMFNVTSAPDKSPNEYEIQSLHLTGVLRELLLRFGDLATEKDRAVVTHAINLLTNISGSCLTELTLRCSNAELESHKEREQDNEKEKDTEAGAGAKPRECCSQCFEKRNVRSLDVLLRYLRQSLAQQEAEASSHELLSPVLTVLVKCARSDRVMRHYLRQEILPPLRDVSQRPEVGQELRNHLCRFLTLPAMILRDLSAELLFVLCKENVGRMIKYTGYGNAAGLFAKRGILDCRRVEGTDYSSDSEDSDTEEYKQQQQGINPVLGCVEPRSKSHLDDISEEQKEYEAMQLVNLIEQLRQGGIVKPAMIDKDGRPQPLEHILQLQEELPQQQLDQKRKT
Experiment: co-IP

Substance	binding
Drosophila Gαo G203R (from UniProt P16378 1-354)	binds
non-tagged Gαo G203R (from UniProt P09471 1-354)	binds
